From article doi:10.1101/2020.12.22.423950 come the findings set out here.

Results are given in words; binding and its absence hold for the method and conditions named. In cells and extracts the contact can be indirect. Some binding calls cover weakened binding; strength is not graded here. Tags and fused reporters may be left off the sequences shown.

The assay has as its target T1, Flag- and HA-tagged Sting (F/HA-Sting), Stimulator of interferon genes (UniProt Q3TBT3).
T1 sequence: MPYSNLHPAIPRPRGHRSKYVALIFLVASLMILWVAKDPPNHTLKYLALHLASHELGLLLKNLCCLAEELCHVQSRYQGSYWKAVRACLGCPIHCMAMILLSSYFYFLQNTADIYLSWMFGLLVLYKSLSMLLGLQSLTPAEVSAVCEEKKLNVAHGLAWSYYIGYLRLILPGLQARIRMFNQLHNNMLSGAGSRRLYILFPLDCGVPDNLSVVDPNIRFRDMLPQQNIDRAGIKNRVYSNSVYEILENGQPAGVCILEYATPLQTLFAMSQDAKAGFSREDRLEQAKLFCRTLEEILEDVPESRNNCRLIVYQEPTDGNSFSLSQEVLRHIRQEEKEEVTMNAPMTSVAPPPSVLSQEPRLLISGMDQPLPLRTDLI
Put plainly: co-IP.

B1: Fatty acid desaturase 2 (Fads2), endogenous in MEF (enzyme, UniProt Q9Z0R9 1-444)
chain: MGKGGNQGEGSTERQAPMPTFRWEEIQKHNLRTDRWLVIDRKVYNVTKWSQRHPGGHRVIGHYSGEDATDAFRAFHLDLDFVGKFLKPLLIGELAPEEPSLDRGKSSQITEDFRALKKTAEDMNLFKTNHLFFFLLLSHIIVMESLAWFILSYFGTGWIPTLVTAFVLATSQAQAGWLQHDYGHLSVYKKSIWNHVVHKFVIGHLKGASANWWNHRHFQHHAKPNIFHKDPDIKSLHVFVLGEWQPLEYGKKKLKYLPYNHQHEYFFLIGPPLLIPMYFQYQIIMTMISRRDWVDLAWAISYYMRFFYTYIPFYGILGALVFLNFIRFLESHWFVWVTQMNHLVMEIDLDHYRDWFSSQLAATCNVEQSFFNDWFSGHLNFQIEHHLFPTMPRHNLHKIAPLVKSLCAKHGIEYQEKPLLRALIDIVSSLKKSGELWLDAYLHK
On to B1, for which the binding result is recorded as “binds”.
